Consider 1 molecule from doi:10.1101/706473.

No constants are given. Whether binding was seen depends on the method and setting. Some binding calls cover weakened binding; strength is not graded here.

Experiment [1] has as its target T1, Homothorax, full-length isoform (Hth^FL) (D. melanogaster) (UniProt O46339).
T1 sequence: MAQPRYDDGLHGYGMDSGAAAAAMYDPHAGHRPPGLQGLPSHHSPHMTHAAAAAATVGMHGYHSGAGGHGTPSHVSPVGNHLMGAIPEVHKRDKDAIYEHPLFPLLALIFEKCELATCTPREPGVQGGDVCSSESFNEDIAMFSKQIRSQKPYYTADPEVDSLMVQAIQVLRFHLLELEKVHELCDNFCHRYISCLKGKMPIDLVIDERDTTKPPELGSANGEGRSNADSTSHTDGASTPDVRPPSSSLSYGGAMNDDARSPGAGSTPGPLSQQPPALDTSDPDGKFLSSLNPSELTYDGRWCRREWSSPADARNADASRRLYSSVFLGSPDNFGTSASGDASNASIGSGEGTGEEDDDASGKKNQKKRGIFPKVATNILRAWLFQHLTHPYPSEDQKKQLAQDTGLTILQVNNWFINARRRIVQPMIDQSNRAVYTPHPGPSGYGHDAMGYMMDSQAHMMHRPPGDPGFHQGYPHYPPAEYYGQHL
Description: co-purification.

In experiment [2] the target is T2, Hth HM-domain (amino acids 1-242), Hth^HM (D. melanogaster) (UniProt O46339).
T2 sequence: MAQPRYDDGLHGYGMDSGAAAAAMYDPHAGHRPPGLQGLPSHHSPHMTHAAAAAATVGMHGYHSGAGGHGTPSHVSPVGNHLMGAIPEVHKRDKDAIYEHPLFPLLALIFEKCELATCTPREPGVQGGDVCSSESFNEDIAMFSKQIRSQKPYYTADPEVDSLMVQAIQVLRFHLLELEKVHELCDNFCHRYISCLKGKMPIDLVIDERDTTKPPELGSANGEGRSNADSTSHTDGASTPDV
The experiment is described as follows: co-purification.

B1: Extradenticle (Exd), full-length (protein, UniProt P40427 1-376)
chain: MEDPNRMLAHTGGMMAPQGYGLSGQDDGQNAGSENEVRKQKDIGEILQQIMSISEQSLDEAQARKHTLNCHRMKPALFSVLCEIKEKTVLSIRNTQEEEPPDPQLMRLDNMLIAEGVAGPEKGGGGAAAASAAAASQGGSLSIDGADNAIEHSDYRAKLAQIRQIYHQELEKYEQACNEFTTHVMNLLREQSRTRPITPKEIERMVQIIHKKFSSIQMQLKQSTCEAVMILRSRFLDARRKRRNFSKQASEILNEYFYSHLSNPYPSEEAKEELARKCGITVSQVSNWFGNKRIRYKKNIGKAQEEANLYAAKKAAGASPYSMAGPPSGTTTPMMSPAPPQDSMGYPMGSGGYDQQQPYDNSMGGYDPNLHQDLSP
B1: the binding entry in experiment [1] and in experiment [2] was “binds” each time.
